Measured values from paper doi:10.1101/2024.05.24.595653.
These are yes or no findings as the source states them, for the method shown. In cells and extracts the contact can be indirect. Here binding means that the protein was enriched with, or labelled near, the bait; the list need not be complete. Sequences can lack the tags named with a protein.

Target: T1, fluorescent protein-tagged KIPK (KINESIN-LIKE CALMODULIN-BINDING PROTEIN … PROTEIN KINASE) (Arabidopsis thaliana) (UniProt Q9LFA2)
T1 sequence: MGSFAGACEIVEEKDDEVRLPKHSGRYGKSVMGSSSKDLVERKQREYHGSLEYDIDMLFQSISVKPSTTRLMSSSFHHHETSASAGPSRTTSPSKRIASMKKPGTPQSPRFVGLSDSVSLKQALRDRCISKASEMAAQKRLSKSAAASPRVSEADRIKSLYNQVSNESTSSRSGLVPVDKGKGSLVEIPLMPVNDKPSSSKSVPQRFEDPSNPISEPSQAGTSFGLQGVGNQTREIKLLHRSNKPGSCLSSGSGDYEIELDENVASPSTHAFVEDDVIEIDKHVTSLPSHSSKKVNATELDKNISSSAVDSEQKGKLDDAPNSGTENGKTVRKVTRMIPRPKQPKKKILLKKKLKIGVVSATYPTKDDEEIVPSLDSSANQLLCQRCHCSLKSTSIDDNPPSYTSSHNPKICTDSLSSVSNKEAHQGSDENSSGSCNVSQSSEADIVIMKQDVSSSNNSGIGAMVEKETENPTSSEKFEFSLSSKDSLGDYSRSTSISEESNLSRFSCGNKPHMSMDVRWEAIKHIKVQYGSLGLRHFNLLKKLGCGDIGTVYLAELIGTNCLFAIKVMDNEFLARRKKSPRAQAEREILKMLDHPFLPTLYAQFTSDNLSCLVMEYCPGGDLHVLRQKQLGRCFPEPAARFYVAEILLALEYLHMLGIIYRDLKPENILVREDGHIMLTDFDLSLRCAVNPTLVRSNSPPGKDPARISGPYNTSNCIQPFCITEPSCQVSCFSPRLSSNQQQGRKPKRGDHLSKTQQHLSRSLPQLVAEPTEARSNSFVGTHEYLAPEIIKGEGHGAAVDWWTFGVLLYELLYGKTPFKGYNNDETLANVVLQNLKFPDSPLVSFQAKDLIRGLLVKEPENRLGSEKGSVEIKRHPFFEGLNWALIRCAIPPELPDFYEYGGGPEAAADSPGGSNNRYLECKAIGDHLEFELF
Assay: affinity purification with mass spectrometry

B1: BRXL2 (BREVIS RADIX LIKE2) (protein, UniProt Q8GYL9 1-374)
chain: MLTCIACTKQLNTNNGGSKKQEEDEEEEDRVIETPRSKQIKSLTSQIKDMAVKASGAYKSCKPCSGSSNQNKNRSYADSDVASNSGRFRYAYKRAGSGSSTPKILGKEMESRLKGFLSGEGTPESMSGRTESTVFMEEEDELKEWVAQVEPGVLITFVSLPEGGNDMKRIRFSREMFDKWQAQKWWAENFDKVMELYNVQQFNQQSVPLPTPPRSEDGSSRIQSTKNGPATPPLNKECSRGKGYASSGSLAHQPTTQTQSRHHDSSGLATTPKLSSISGTKTETSSVDESARSSFSREEEEADHSGEELSVSNASDIETEWVEQDEAGVYITIRALPDGTRELRRVRFSREKFGETNARLWWEQNRARIQQQYL
With B1 the binding was “binds”.
